# Laboratory results published in patent US11464770B2, “Anticancer pharmaceutical composition” (NATIONAL CANCER CENTER, priority 2016, dated 2022).
# For at least one compound, name, drawing or mass did not settle the structure.
# System: human lung cancer cell line (NCI-H1299)
# Experiment: Tumor growth inhibition in animal model using NCI-H1299
# Assay type: in vivo
# Conditions: orally administered three times a week, NCI-H1299 animal model (FIG. 3)
compound,measurement,value
"CC(=O)c1c([S+]([O-])Cc2cc(C)on2)[nH]c2c(Br)ccc(Cl)c2c1=O (stereo not shown) [Compound 51, 3-acetyl-8-bromo-5-chloro-2-(((5-methylisoxazol-3-yl)methyl)sulfinyl)quinolin-4(1H)-one]",Effect of inhibiting tumor growth,effect of inhibiting tumor growth
